This is an account of results in patent publication US20230416348A1.

This test addresses calreticulin on the surface of HL-60 cells (acute promyelocytic leukemia cell line; ATCC CCL-240) (human) (UniProt P27797). Kind of test: flow cytometry on HL-60 cells, 400 ug/ml nanobody, anti-alpaca-AF647 secondary.

Results are given in words; binding and its absence hold for the method and conditions named. Some binding calls cover weakened binding; strength is not graded here.

B1: 2TIC105 (VHH)
VHH: QVQLQESGGGLVQAGGSLRLSCATSTFPFTMNNMGWYRQAPGKERELVAAITNDGSITYTDSVKGRFTISRDNARNTLYLQMNSLKPEDTAVYYCNRGTGPSYPWGQGTQVTVSS
As for B1, the binding entry was “binds”.

B2: 3TIC157 (VHH)
VHH: QVQLQESGGGLMQPGGSLRLSCAGTNFLSSRFEMGWYRQIPGKQRELVARIFRDGNTDYVDSVKGRFTISRDTAKNTIDLQMNNLKPEDTAGYFCHVHILGRDYWGQGTQVTVSS
Take B2: the binding entry is listed as “binds”.

B3: 3SPC11 (VHH)
VHH: QVQLQESGGGLVQPGGSLRLSCTASGSIAAFGWYRQAPGKQREFVANMYVGGSIRYSDSVKGRFTISKDNAKNTAYLQMNILKPEDTAVYYCNALVRFEGRNDDYWGQGTQVTVSS
B3: the binding entry is recorded as “binds”.

B4: 3TIC34 (VHH)
VHH: QVQLQESGGGLVQAGGSLRLSCAASGGTFSNYGMGWFRQAPGKEREFVATINWSGAITHYADSVKGRFSISRDNAKNTVYLQMNSLKPDDTAVYYCAAVTRYGGYADSRPQWYDSWGQGTQVTVSS
Turning to B4, the binding entry is “binds”.
